Counter-ions that a name gives are not always drawn.
Details: rats, donepezil 0.1 mg/kg p.o., Compound D 0.1 mg/kg p.o.

COc1cc2c(cc1OC)C(=O)C(CC1CCN(Cc3ccccc3)CC1)C2 (stereo not shown) [Donepezil, Donepezil hydrochloride]
differences in PK profile of donepezil, alone vs combination with Compound D: No significant differences

Reference: US12298319B2, “Method for measuring alpha value of muscarinic M1 receptor positive allosteric modulators” (Takeda Pharmaceutical Company Limited, priority 2017, dated 2025)
